No constants are given. Whether binding was seen depends on the method and setting. Binding seen in cells or lysates may run through a third protein. Some entries that bind do so weakly or less than the wild type. For some assays here: Where a sequence is shown, tags or fusion partners need not be part of it.
Columns and labels:
[1] = biological target: T1, RPM1-interacting protein 4 (RIN4), expressed in N. benthamiana (Arabidopsis) (UniProt Q8GYN5); experiment: co-IP
T1 sequence: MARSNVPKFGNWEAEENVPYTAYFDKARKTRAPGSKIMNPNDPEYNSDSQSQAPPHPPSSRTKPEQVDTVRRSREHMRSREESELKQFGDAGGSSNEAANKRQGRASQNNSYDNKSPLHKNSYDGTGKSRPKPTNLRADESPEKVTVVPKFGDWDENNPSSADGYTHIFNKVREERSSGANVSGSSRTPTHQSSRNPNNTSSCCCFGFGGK

The chains behind the UniProt entries cited, without tags or fusion partners. Residues count along the entry.
UniProt C0LGT6, residues 25-1031: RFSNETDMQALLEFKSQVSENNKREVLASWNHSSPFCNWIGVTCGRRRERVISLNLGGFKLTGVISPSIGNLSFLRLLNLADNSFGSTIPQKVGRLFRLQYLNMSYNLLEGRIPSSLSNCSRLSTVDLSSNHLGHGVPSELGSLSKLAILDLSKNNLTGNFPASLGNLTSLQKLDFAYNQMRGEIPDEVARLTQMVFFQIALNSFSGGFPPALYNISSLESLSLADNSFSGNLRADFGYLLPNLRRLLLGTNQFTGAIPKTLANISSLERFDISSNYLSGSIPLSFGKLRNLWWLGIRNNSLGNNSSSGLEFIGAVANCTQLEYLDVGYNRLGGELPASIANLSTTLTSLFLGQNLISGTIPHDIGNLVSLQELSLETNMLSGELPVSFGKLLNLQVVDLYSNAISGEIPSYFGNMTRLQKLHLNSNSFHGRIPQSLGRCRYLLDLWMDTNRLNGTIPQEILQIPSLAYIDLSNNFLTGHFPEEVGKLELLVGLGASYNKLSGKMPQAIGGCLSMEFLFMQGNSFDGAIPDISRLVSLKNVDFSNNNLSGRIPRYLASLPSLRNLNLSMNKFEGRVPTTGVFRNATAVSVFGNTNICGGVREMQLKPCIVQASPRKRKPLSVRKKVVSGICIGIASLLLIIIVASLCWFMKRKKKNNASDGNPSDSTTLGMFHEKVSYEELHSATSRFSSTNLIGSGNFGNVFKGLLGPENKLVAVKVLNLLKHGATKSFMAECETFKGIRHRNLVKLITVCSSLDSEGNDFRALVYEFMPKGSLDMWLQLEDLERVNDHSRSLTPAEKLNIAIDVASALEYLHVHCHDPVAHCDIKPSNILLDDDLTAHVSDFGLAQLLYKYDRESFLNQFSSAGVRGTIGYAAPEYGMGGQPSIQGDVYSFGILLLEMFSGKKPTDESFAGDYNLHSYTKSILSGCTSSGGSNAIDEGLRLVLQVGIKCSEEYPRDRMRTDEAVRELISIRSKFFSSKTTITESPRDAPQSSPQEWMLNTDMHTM
UniProt Q9FL28, residues 24-1173: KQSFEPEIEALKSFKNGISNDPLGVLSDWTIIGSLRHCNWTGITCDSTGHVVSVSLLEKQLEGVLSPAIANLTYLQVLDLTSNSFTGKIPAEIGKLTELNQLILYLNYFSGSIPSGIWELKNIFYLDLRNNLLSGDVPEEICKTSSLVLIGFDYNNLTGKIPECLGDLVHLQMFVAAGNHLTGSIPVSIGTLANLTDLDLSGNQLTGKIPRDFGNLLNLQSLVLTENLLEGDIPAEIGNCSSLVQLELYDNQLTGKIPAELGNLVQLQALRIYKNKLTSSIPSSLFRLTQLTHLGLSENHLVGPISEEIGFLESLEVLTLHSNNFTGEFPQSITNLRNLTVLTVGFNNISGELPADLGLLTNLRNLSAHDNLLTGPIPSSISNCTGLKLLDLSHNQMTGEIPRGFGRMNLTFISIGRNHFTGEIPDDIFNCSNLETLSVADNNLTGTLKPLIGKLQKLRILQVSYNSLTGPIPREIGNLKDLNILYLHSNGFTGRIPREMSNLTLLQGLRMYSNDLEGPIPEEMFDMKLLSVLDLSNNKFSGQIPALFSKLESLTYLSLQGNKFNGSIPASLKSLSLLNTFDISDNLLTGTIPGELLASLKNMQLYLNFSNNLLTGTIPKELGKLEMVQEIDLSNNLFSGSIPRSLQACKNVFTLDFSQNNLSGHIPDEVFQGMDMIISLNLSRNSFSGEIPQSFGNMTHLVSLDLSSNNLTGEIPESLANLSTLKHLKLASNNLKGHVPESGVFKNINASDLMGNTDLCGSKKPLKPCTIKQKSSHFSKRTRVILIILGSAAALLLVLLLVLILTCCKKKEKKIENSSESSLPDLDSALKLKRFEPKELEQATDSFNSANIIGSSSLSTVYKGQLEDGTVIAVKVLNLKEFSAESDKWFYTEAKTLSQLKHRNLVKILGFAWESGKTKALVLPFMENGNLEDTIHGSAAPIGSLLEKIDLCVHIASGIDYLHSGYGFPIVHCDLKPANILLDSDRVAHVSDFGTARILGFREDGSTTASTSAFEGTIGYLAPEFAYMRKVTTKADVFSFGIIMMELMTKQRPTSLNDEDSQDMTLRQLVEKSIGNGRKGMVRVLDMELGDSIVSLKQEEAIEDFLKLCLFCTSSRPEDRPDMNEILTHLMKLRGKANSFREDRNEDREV
UniProt Q8H186: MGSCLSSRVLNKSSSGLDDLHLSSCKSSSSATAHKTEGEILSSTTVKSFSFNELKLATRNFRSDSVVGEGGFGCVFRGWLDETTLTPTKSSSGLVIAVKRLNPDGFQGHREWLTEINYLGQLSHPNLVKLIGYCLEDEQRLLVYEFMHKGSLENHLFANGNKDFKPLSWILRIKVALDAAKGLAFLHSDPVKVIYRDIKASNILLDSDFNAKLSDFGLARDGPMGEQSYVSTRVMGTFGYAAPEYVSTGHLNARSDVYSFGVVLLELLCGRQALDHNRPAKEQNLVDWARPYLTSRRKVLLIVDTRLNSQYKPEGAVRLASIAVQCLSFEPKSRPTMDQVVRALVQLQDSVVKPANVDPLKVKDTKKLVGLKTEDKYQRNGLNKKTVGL

[2] = biological target: T2, RPM1-interacting protein 4 (RIN4), in A. thaliana plants (A. thaliana) (UniProt Q8GYN5); experiment: co-IP
T2 sequence: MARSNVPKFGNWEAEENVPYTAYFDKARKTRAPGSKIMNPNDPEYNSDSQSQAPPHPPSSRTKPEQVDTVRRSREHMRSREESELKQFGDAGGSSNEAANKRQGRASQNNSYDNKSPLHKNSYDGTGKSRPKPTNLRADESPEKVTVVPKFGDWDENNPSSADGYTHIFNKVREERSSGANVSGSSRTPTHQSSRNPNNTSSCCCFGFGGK

[3] = biological target: T3, RPM1-interacting protein 4 (RIN4), BiFC fusion (Arabidopsis) (UniProt Q8GYN5); experiment: split reporter
T3 sequence: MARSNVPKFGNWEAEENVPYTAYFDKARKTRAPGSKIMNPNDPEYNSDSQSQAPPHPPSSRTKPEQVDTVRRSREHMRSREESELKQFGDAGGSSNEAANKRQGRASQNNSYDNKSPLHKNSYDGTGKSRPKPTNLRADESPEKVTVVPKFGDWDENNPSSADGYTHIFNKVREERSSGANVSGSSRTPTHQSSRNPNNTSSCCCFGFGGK

[4] = biological target: EFR, expressed in N. benthamiana (UniProt C0LGT6); experiment: co-IP
[5] = biological target: flagellin sensing 2 (FLS2), expressed in N. benthamiana (UniProt Q9FL28); experiment: co-IP

PBS1-like 1 (PBL1), expressed in N. benthamiana (from UniProt Q8H186 1-389) (enzyme)
binding [1]: binds weakly

PBL1-HA in 35S::PBL1-HA transgenic plants (from UniProt Q8H186 1-389) (enzyme)
binding [2]: binds

PBS1-like 1 (PBL1), BiFC fusion (from UniProt Q8H186 1-389) (enzyme)
binding [3]: binds

B1: RPM1-interacting protein 4 (RIN4), expressed in N. benthamiana (protein, UniProt Q8GYN5 1-211)
chain: MARSNVPKFGNWEAEENVPYTAYFDKARKTRAPGSKIMNPNDPEYNSDSQSQAPPHPPSSRTKPEQVDTVRRSREHMRSREESELKQFGDAGGSSNEAANKRQGRASQNNSYDNKSPLHKNSYDGTGKSRPKPTNLRADESPEKVTVVPKFGDWDENNPSSADGYTHIFNKVREERSSGANVSGSSRTPTHQSSRNPNNTSSCCCFGFGGK
binding [4]: binds
binding [5]: binds
